One molecule from patent US20190077867A1 (REYOUNG SUZHOU BIOLOGY SCIENCE AND TECHNOLOGY, published 2019) can be followed below.

Protein sequences, listed by entry. Tags and fused reporters are not part of them.
UniProt Q9EP73: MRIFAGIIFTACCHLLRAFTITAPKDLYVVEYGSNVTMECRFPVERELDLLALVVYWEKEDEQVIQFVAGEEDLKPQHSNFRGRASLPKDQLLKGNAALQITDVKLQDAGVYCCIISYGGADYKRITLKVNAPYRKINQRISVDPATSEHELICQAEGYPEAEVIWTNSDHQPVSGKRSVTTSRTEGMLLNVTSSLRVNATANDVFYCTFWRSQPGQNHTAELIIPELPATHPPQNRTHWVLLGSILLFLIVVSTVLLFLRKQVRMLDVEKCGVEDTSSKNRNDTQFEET

These are yes or no findings as the source states them, for the method shown. Some results given as binding are weak or reduced against the parent protein; the word gives no strength.

One assay has as its target Mouse pdl1 (mouse) (UniProt Q9EP73). Put plainly: condition: 0.5 µg/mL (single antibody concentration, from paragraph 145; not printed on the sheet); ELISA, protein coated on the plate, antibody at 0.5 µg/mL, goat anti-human FAB-HRP, OD450.
Assay [1] concerns the target M. fascicularis PD-L1 protein (M. fascicularis) (UniProt G7PSE7). Kind of assay: ELISA on coated protein, 0.5 µg/mL antibody, goat anti-human FAB-HRP. In general terms: In an ELISA, binding on a coated surface is turned into a signal by an enzyme label.

B1: humanized antibody anti-PD-L1-1 (antibody, V domains shown)
VH: EVQLVQSGAEVKKPGASVKVSCKASGYTFTKYIIHWVRQAPGQGLEWMGWFYPGSGNIRYNEKIKGRVTMTRDTSTSTVYMELSSLRSEDTAVYYCARHGELGGGYFFDYWGQGTTVTVSS
VL: DIQLTQSPSFLSASVGDRVTITCRASSSVSNIHWYQQKPGKAPKPWIYATSNLASGVPSRFSGSGSGTEFTLTISSLQPEDFATYYCQQWSSNPLTFGQGTKLEIKR
notes: Expressed in CHO-KSM4 cells; also called humanized PD-L1 antibody
On to B1, for which the binding entry is recorded as “no binding” with Mouse pdl1 (mouse) and “binds” in assay [1].
